Data as given in PubChem BioAssay AID602196 (INSERM, 2012)
Assay: 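Knock-downs that protect lung cancer cells from cisplatin or sensitise them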. System: human A549 lung cancer cells. Knock-down reagent: siRNA pair against human genes. Duration: 48 h transfection before cisplatin; time from cisplatin to read-out not stated. Conditions: cisplatin at a dose killing half of control-siRNA cells; exact dose and duration not given. Detection: 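Shift in cisplatin death relative to control siRNA, from -50 (all cells die) to +50 (no cells die); siRNAs harmful on their own scored 0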. Scale: two-siRNA summed score (-2 to +2): higher = both siRNAs protect from cisplatin killing; -2 means both sensitise; mean protection from cisplatin (shift in death): higher = protection from cisplatin killing. Hit rule: 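Each siRNA scores 0 if harmful alone by LDH or WST-1, otherwise +1 if it reduces and -1 if it increases cisplatin killing; a gene is active when both siRNAs agree (sum +2 or -2)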. Meaning of the calls: active = both siRNAs shift cisplatin killing the same way; inactive = no consistent shift, or siRNA harmful alone.
In all, the deposit lists about 23,000 reagents; below is a random part of them. 455 of them (2%) count as active. 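Active includes both protection and sensitisation; some change values fall well beyond the stated -50 to +50 range.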 Entries without a mark were called inactive. Not all columns of the deposit are shown. Reagent sequences are not shown. Not given: the amount of reagent.

HACE1
- two-siRNA summed score (-2 to +2): 0
- mean protection from cisplatin (shift in death) (%): 9.8

IFT80 (intraflagellar transport 80)
- two-siRNA summed score (-2 to +2): 0
- mean protection from cisplatin (shift in death) (%): 7.8

E2F5 (E2F transcription factor 5)
- two-siRNA summed score (-2 to +2): 0
- mean protection from cisplatin (shift in death) (%): 6.9

NLE1 (notchless homolog 1)
- two-siRNA summed score (-2 to +2): 1
- mean protection from cisplatin (shift in death) (%): 10.7

PF4 (platelet factor 4)
- two-siRNA summed score (-2 to +2): -1
- mean protection from cisplatin (shift in death) (%): -8.1

RTF2 (replication termination factor 2)
- two-siRNA summed score (-2 to +2): 0
- mean protection from cisplatin (shift in death) (%): 4.9

GOLGA6L5P (golgin A6 family like 5, pseudogene)
- two-siRNA summed score (-2 to +2): 1
- mean protection from cisplatin (shift in death) (%): 5.7

DENND2D (DENN domain containing 2D)
- two-siRNA summed score (-2 to +2): 0
- mean protection from cisplatin (shift in death) (%): -2.6

TRIM22 (tripartite motif containing 22)
- two-siRNA summed score (-2 to +2): 0
- mean protection from cisplatin (shift in death) (%): 0.9

SYNC (syncoilin, intermediate filament protein)
- two-siRNA summed score (-2 to +2): 0
- mean protection from cisplatin (shift in death) (%): 8.7

OOSP2 (oocyte secreted protein 2)
- two-siRNA summed score (-2 to +2): 0
- mean protection from cisplatin (shift in death) (%): 12.9

LOC390466
- two-siRNA summed score (-2 to +2): 0
- mean protection from cisplatin (shift in death) (%): 8.5

ARHGAP5 (Rho GTPase activating protein 5)
- two-siRNA summed score (-2 to +2): 0
- mean protection from cisplatin (shift in death) (%): 7.9

PLEKHA5 (pleckstrin homology domain containing A5)
- two-siRNA summed score (-2 to +2): -1
- mean protection from cisplatin (shift in death) (%): -11.6

FABP1 (fatty acid binding protein 1)
- two-siRNA summed score (-2 to +2): 0
- mean protection from cisplatin (shift in death) (%): 2

POGLUT2 (protein O-glucosyltransferase 2)
- two-siRNA summed score (-2 to +2): 0
- mean protection from cisplatin (shift in death) (%): -11.6

RFX7 (regulatory factor X7)
- two-siRNA summed score (-2 to +2): 0
- mean protection from cisplatin (shift in death) (%): 11.1

LOC284623
- two-siRNA summed score (-2 to +2): 0
- mean protection from cisplatin (shift in death) (%): -3.4

LOC440605
- two-siRNA summed score (-2 to +2): 0
- mean protection from cisplatin (shift in death) (%): 2.6

LOC389599
- two-siRNA summed score (-2 to +2): 0
- mean protection from cisplatin (shift in death) (%): -4.4

RBM23 (RNA binding motif protein 23)
- two-siRNA summed score (-2 to +2): 0
- mean protection from cisplatin (shift in death) (%): 2.3

CELSR3 (cadherin EGF LAG seven-pass G-type receptor 3)
- two-siRNA summed score (-2 to +2): 0
- mean protection from cisplatin (shift in death) (%): -6.5

KIF15 (kinesin family member 15)
- two-siRNA summed score (-2 to +2): 0
- mean protection from cisplatin (shift in death) (%): 9.8

FAM219B (family with sequence similarity 219 member B)
- two-siRNA summed score (-2 to +2): 0
- mean protection from cisplatin (shift in death) (%): -7.5

LOC440834
- two-siRNA summed score (-2 to +2): 0
- mean protection from cisplatin (shift in death) (%): 7.7

DCHS2 (dachsous cadherin-related 2)
- two-siRNA summed score (-2 to +2): 0
- mean protection from cisplatin (shift in death) (%): -15.9

EDF1 (endothelial differentiation related factor 1)
- two-siRNA summed score (-2 to +2): -1
- mean protection from cisplatin (shift in death) (%): -9.6

THOC1 (THO complex subunit 1)
- two-siRNA summed score (-2 to +2): -1
- mean protection from cisplatin (shift in death) (%): -9.5

ZNF761 (zinc finger protein 761)
- two-siRNA summed score (-2 to +2): 0
- mean protection from cisplatin (shift in death) (%): 7.4

LOC442277
- two-siRNA summed score (-2 to +2): 0
- mean protection from cisplatin (shift in death) (%): 5.5

PILRB (paired immunoglobin like type 2 receptor beta)
- two-siRNA summed score (-2 to +2): -1
- mean protection from cisplatin (shift in death) (%): -19.7
